{"source": "PubChem BioAssay AID493014", "about": "(National Center for Advancing Translational Sciences (NCATS), 2011)", "note": "Among all 340,000 compounds or so, about 170 (0.05%) were called active. The shares of active, inactive and inconclusive entries below differ from those in the screen. The call rests on the fitted dose curve; in most records, active means well fitted inhibition curve with a large enough effect in the signal ratio, with a control signal flat (not every such curve was filed as active); inconclusive means small, poorly fitted or top-dose-only effect, or effect the other way, or a change in a side signal; inactive means flat fitted curve, though single readings scatter; the % refers to the signal ratio. A potency beside an inconclusive call is a rough fit, not a confirmed value. Potency means the concentration at half of the fitted maximal effect.", "data": [{"assay": "qHTS Assay to Find Inhibitors of Chronic Active B-Cell Receptor Signaling;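 on activity change, negative = inhibition: plate controls were basal doxycycline-induced cells for no effect and cells given 10 µM MG132 for full effect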", "conditions": "ABC-DLBCL IkBa-CBG/CBR reporter, luminescence ratio (green luciferase fused to IkBa over red control in TMD8 lymphoma cells), 4 h; activity change, negative = inhibition: at 46.1 µM (top of the series) unless noted", "summary_of_the_method": "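Cell line TMD8 (human ABC DLBCL), stably expressing tet-inducible CBG68-IkBa fusion and CBR; IMDM/0.5% FBS; cpd up to 46 uM; dox induction, 4 h, 37C/5% CO2; dual luminescence; green/red ratio; MG132 control.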", "values": [{"smiles": "COc1ccc(CCC(C)Nc2cccc(F)c2)cc1", "note": "(stereo unspecified)", "activity change, negative = inhibition": "inconclusive: 16.5%"}, {"smiles": "CCOc1ccc(S(=O)(=O)N2CCC(C(=O)NCCN3CCOCC3)CC2)cc1C", "activity change, negative = inhibition": "inconclusive: -9.28%"}, {"smiles": "Cc1ccc2c(c1)N=C(c1ccccc1)CC(C(Cl)Cl)=N2", "Potency": "inconclusive: 17.8 µM [falling, partial curve]"}, {"smiles": "CCOc1ccc2oc(C(=O)NCC3CCCO3)c(C)c2c1", "note": "(stereo unspecified)", "activity change, negative = inhibition": "inconclusive: 4.67%"}, {"smiles": "CCCCNc1ccc(C(F)(F)F)cc1S(=O)(=O)NCCc1ccc(F)cc1", "activity change, negative = inhibition": "inactive: -6.12%"}, {"smiles": "Cc1cc(NC(=O)c2coc(=O)c(Br)c2)ccc1C(C)C", "Potency": "inconclusive: 35.5 µM [rising, single point]"}, {"smiles": "Cc1cccc(-n2c(C)cc(C(=O)NC3CCCCC3)c2C)c1", "activity change, negative = inhibition": "inactive: -21.3%"}, {"smiles": "CCOc1cc(/C=C(\\C#N)C(=O)Nc2cccc(C(=O)O)c2)ccc1OCc1ccccc1Cl", "activity change, negative = inhibition": "inactive: 11.6%"}, {"smiles": "COc1ccccc1N1C(=O)C2CC(C)=C(C)CC2C1=O", "note": "(stereo unspecified)", "Potency": "inconclusive: 3.98 µM [falling, partial curve, poor fit]"}, {"smiles": "COc1ccc([C@H]2Oc3cc(O)cc(O)c3C(=O)C2[C@@H]2C(=O)c3c(O)cc(O)cc3O[C@@H]2c2ccc(OC)cc2)cc1", "note": "(stereo partly specified)", "activity change, negative = inhibition": "inconclusive: 10.7%"}, {"smiles": "CCOC(=O)c1ccccc1NC(=O)C1CCN(c2ncnc3sc(C)c(C)c23)CC1", "activity change, negative = inhibition": "inconclusive: -0.486%"}, {"smiles": "COCCNC(=S)Nc1cc(OC)c(NC(=O)c2ccco2)cc1OC", "Potency": "inconclusive: 12.6 µM [rising, partial curve]"}, {"smiles": "O=C(CN1C(=O)NC(c2ccccc2)(c2ccccc2)C1=O)NCc1ccco1", "activity change, negative = inhibition": "inactive: 6.68%"}, {"smiles": "Cc1ccc2c(CC(=O)Nc3ccc(N4CCN(C)CC4)cc3C)coc2c1", "activity change, negative = inhibition": "inconclusive: -1.38%"}, {"smiles": "CCOC(=O)C(Cc1ccccc1)C(=O)Nc1cccc2ccccc12", "note": "(stereo unspecified)", "activity change, negative = inhibition": "inconclusive: 1.42%"}, {"smiles": "O=C1NC(c2cccc(Br)c2)=N/C1=C\\c1ccco1", "activity change, negative = inhibition": "inconclusive: 11.5%"}, {"smiles": "COc1ccc(-c2[nH]ncc2CN2CCN(C(=O)c3ccco3)CC2)cc1F", "Potency": "inconclusive: 35.5 µM [falling, single point]"}, {"smiles": "CC(C)C(=O)Nc1nc2cc3c(cc2s1)OCO3", "Potency": "inconclusive: 25.9 µM [falling, single point]"}, {"smiles": "COCCn1c(N)c(N(Cc2ccccc2)C(=O)Cc2ccccc2F)c(=O)[nH]c1=O", "activity change, negative = inhibition": "inconclusive: 6.42%"}, {"smiles": "CCN(CC)S(=O)(=O)c1ccc(OC)c(NC(=O)c2ccc3c(c2)OCO3)c1", "activity change, negative = inhibition": "inconclusive: 1.55%"}, {"smiles": "CCOC(=O)c1ccccc1NC(=O)COC(=O)C(CCSC)NC(=O)COc1ccccc1", "note": "(stereo unspecified)", "activity change, negative = inhibition": "inconclusive: -19.8%"}, {"smiles": "CCN(CC)CC(O)CCCCCCCCC(=O)OC", "note": "(stereo unspecified)", "activity change, negative = inhibition": "inactive: -0.302%"}, {"smiles": "Cc1nn2c(c1-c1ccc(Cl)cc1)N=C(c1ccco1)CC2c1ccccc1", "note": "(stereo unspecified)", "Potency": "inconclusive: 17.8 µM [falling, single point]"}, {"smiles": "CNc1c([N+](=O)[O-])cnn1-c1ccc(F)cc1", "activity change, negative = inhibition": "inconclusive: -1.13%"}, {"smiles": "COC(=O)C1=NN(C(=O)c2ccccc2)C(O)(c2ccc([N+](=O)[O-])cc2)C1", "note": "(stereo unspecified)", "activity change, negative = inhibition": "inconclusive: -1.04%"}, {"smiles": "Cc1cccc(NC(=O)c2cc(-c3cc(C)cc(C)c3O)n[nH]2)c1", "activity change, negative = inhibition": "inconclusive: 317%"}, {"smiles": "CC(=O)CCc1ccc(OCCCCN2CCC(Cc3ccccc3)CC2)cc1", "activity change, negative = inhibition": "inconclusive: -21.8%"}, {"smiles": "Cc1ccc(OCC(=O)NC2CC(C)(C)NC(C)(C)C2)cc1C", "activity change, negative = inhibition": "inactive: -10%"}, {"smiles": "CC(C)(C)OC(=O)NCCCCCc1nnc(SCC(N)=O)o1", "activity change, negative = inhibition": "inconclusive: 0.937%"}, {"smiles": "OCC1(CCOc2ccccc2)CCN(C2Cc3ccccc3C2)CC1", "activity change, negative = inhibition": "inconclusive: 0.174%"}, {"smiles": "COc1ccc(-c2noc(CCC(=O)NCCCN3CCC(C)CC3)n2)cc1", "activity change, negative = inhibition": "inactive: 14.5%"}, {"smiles": "COc1ccccc1OCCNC(=O)c1ccc(C)c(S(=O)(=O)N2CCOCC2)c1", "activity change, negative = inhibition": "inconclusive: -16.3%"}, {"smiles": "COc1c(Cl)ccc(Cl)c1C(=O)OCC(=O)O", "activity change, negative = inhibition": "inconclusive: 1.99%"}, {"smiles": "CCCCN(CC)CCNC(=O)Cn1cc2c(n1)-c1c(oc(C(=O)N3CCCC3)c1C)CC2", "activity change, negative = inhibition": "inconclusive: -5.34%"}, {"smiles": "O=C(Nc1ccc(OC(F)F)cc1)c1cc(S(=O)(=O)N2CCOCC2)ccc1F", "activity change, negative = inhibition": "inconclusive: -7.89%"}, {"smiles": "O=c1[nH]c2cc3c(cc2cc1CN(Cc1cccs1)Cc1nnnn1Cc1ccco1)OCCO3", "activity change, negative = inhibition": "inconclusive: -20.7%"}, {"smiles": "Cc1c(Cl)cccc1N/C(=N/S(=O)(=O)c1cccs1)c1ccccc1", "Potency": "inconclusive: 35.5 µM [falling, single point]"}, {"smiles": "COc1ccc(OCC(=O)N2CCCC(CO)(CCOc3ccccc3)C2)cc1", "note": "(stereo unspecified)", "activity change, negative = inhibition": "inactive: -0.428%"}, {"smiles": "Cc1ccccc1-c1nnn(CC(=O)Nc2cccc(S(N)(=O)=O)c2)n1", "Potency": "inconclusive: 10 µM [falling, partial curve, poor fit]"}, {"smiles": "COc1ccc(/C=N/NC(=O)C(Cc2c[nH]c3ccccc23)NC(=O)OCC(C)C)cc1[N+](=O)[O-]", "note": "(stereo unspecified)", "activity change, negative = inhibition": "inconclusive: -1.22%"}, {"smiles": "COc1ccc(C(=O)OCC2CC(c3ccccc3)N(C)O2)cc1", "note": "(stereo unspecified)", "activity change, negative = inhibition": "inconclusive: -74.5%"}]}]}
